The results in this text go back to patent US20260216144A1, “TARGETING MB2 OF THE MYC ONCOGENE AND ITS INTERACTION WITH TRRAP IN CANCER” (priority 2019, published 2026).

The series relates to MYC: TRRAP. Nature of the series: CD spectroscopy of MYC 1-190, TRRAP 2033-2088 and their mixture in the presence of additives. Particulars: CD spectra with additive; Table 3. The arrangement: species or system human.

“Also recorded” adds a separate entry of the source.

As for `OCC(F)(F)F` [2,2,2-Trifluoroethanol], the “Secondary Structure” value is reported as “largest gain in secondary structure; also recorded: Highly α-helical”.
For `C[N+](C)(C)CC(=O)O` [Betaine], the “Secondary Structure” value is recorded as “Unstructured”.
The result for `O=S(=O)([O-])[O-].[Cu+2]` [CuSO4] reads “Unstructured”.
With `CCO` [Ethanol], the “Secondary Structure” value is reported as “Unstructured”.
Consider `OCCO` [Ethylene Glycol], for which the “Secondary Structure” value is given as “α-helical”.
Take `OCC(O)CO` [Glycerol]: the “Secondary Structure” value was “Partially α-helical”.
With `NCC(=O)O` [Glycine], the “Secondary Structure” value was “Unstructured”.
For the molecule `CO` [Methanol], the “Secondary Structure” value is listed as “Unstructured”.
Turning to `OC[C@H]1O[C@H](O[C@H]2O[C@H](CO)[C@@H](O)[C@H](O)[C@H]2O)[C@H](O)[C@@H](O)[C@@H]1O` [Trehalose], the “Secondary Structure” value is listed as “Unstructured”.
With `C[N+](C)(C)[O-]` [Trimethylamine N-oxide], the “Secondary Structure” value was “Unstructured”.
As for `[Cl-].[Cl-].[Zn+2]` [ZiCl2], the entry is “Unstructured”.
